The campaign covered roughly 330,000 compounds. About 7,700 (2.3%) were called active. This list was built around the results that the source calls inconclusive (neither active nor inactive); the mix of calls is not that of the screen. Calls come from the whole dose curve; as a rule, active = well fitted inhibition curve with a large enough effect; inconclusive = small, poorly fitted or top-dose-only effect, or effect the other way; inactive = flat fitted curve, though single readings scatter. Potencies beside an inconclusive call are fits to weak or partial responses and may not hold up.
assay: qHTS screen for small molecules that inhibit ELG1-dependent DNA repair in human embryonic kidney (HEK293T) cells expressing luciferase-tagged ELG1; conditions: HEK293T ELG1-luciferase reporter, luminescence, 16 h, DNA damage induced by 5-fluorouridine; activity change, negative = inhibition: at 46.1 µM (top of the series); note: nearly all actives have a fitted effect of over 55% in size
Summary of the method: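 Quantitative HTS, concentration-response format. 2,000 cells/well co-treated with 5-fluorouridine and compound, 16 hr in 5% CO2 at 37 °C; ONE-Glo luminescence read after 30 min.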
% is set by controls: 0 for no effect and ±100 for the full control effect; potency is the fitted concentration of half-maximal effect.

Compound | activity change, negative = inhibition | Potency
CN(C)CCCNC(=S)N(CCN(C)C)Cc1cc2cc3c(cc2[nH]c1=O)OCCO3 | inactive: -16.7% | –
O=C(NNC(=O)c1ccccc1OCc1ccc(F)cc1)c1ccccc1O | – | active: 2.31 µM
O=C(COc1ccc(Br)cc1CNCCCN1CCOCC1)Nc1ccccc1 | inactive: -14.8% | –
Cc1ccc(NC(=O)c2ccc(NCc3ccco3)c([N+](=O)[O-])c2)cc1Cl | inactive: 8.27% | –
CC(C)C[C@H](NC(=O)c1[nH]cnc1C(=O)N[C@@H](Cc1ccccc1)C(=O)OC(C)(C)C)C(=O)OC(C)(C)C | – | inconclusive: 29.1 µM [inhibitor, single point]
Nc1ncnc2c1ncn2[C@@H]1O[C@H](CO)[C@@H](O)[C@H]1O | inactive: 15.2% | –
O=C(COC(=O)c1cc([N+](=O)[O-])ccc1N1CCOCC1)NC1CCCCC1 | inactive: -1.54% | –
Cc1cccc(C2c3[nH]c4ccccc4c3CCN2C(=O)c2cc(CC(C)C)nc(C)n2)n1 (stereo not given) | – | inconclusive: 20.6 µM [inhibitor, partial curve]
O=c1c2ccccc2nnn1CSc1nnc(-c2ccc3c(c2)OCO3)o1 | – | inconclusive: 25.9 µM [activator, single point]
COc1ccc(OC)c(CNC(=O)c2nn(C)c3c2CS(=O)(=O)c2ccccc2-3)c1 | – | active: 3.26 µM
CC(=O)c1c(C)[nH]c(C(=O)OCn2nnc3ccccc3c2=O)c1C | – | active: 18.4 µM
Fc1ccc2nc(Nc3ccccc3)sc2c1 | – | inconclusive: 16.4 µM [activator, partial curve]
C=CCOc1ccc(/C(O)=C2/C(=O)C(=O)N(CCCn3ccnc3)C2c2cccs2)cc1 (stereo not given) | – | inconclusive: 29.1 µM [activator, single point]
COc1ccc(N(CC(=O)NC2CCCCC2)C(=O)c2ccc(C)s2)c(OC)c1 | inactive: -8.52% | –
CC(C)c1ccccc1-n1c(SCc2cc(=O)oc3ccc4ccccc4c23)nnc1-c1cccnc1 | – | active: 23.1 µM
Cc1cc(C(=O)COC(=O)c2ccc(N)cc2)c(C)n1-c1c(C)n(C)n(-c2ccccc2)c1=O | inactive: 14.1% | –
COc1ccc(CC(=O)Nc2cccc(SC)c2)cc1OC | – | active: 5.17 µM
O=C(NCc1ccc(F)cc1)C1CCCN1C(=O)Nc1ccc(Cl)cc1 (stereo not given) | inactive: -13.1% | –
O=c1c(Cl)c(NS(=O)(=O)c2ccccc2)cnn1-c1ccccc1 | inactive: -0.219% | –
CCOC(=O)c1c(Nc2ccccc2OCCOC)n[nH]c1C | – | active: 20.6 µM
CCc1ccc(OCC(=O)NC(=S)Nc2ccc(F)cc2)c(Br)c1 | – | inconclusive: 16.4 µM [activator, partial curve]
COc1cccc(CNCC(=O)Nc2ccc(N3CCOCC3)cc2)c1 | – | inconclusive: 29.1 µM [inhibitor, single point]
CCCC(=O)Nc1nc(C)c(-c2csc(Nc3cc(OC)ccc3OC)n2)s1 | – | active: 5.17 µM
CCN1C(=O)/C(=C2\SC(=S)N(CCCOC)C2=O)c2ccccc21 | inactive: 8.81% | –
COc1ccc(Cl)cc1NC(=O)Cn1nnc(C(=O)NCCc2ccc(OC)c(OC)c2)c1N | – | inconclusive: 18.3 µM [inhibitor, single point]

Gathered by group: those above containing an aryl methoxy group
Compound | activity change, negative = inhibition | Potency
COc1ccc(OC)c(CNC(=O)c2nn(C)c3c2CS(=O)(=O)c2ccccc2-3)c1 | – | active: 3.26 µM
COc1ccc(N(CC(=O)NC2CCCCC2)C(=O)c2ccc(C)s2)c(OC)c1 | inactive: -8.52% | –
COc1ccc(CC(=O)Nc2cccc(SC)c2)cc1OC | – | active: 5.17 µM
COc1cccc(CNCC(=O)Nc2ccc(N3CCOCC3)cc2)c1 | – | inconclusive: 29.1 µM [inhibitor, single point]
CCCC(=O)Nc1nc(C)c(-c2csc(Nc3cc(OC)ccc3OC)n2)s1 | – | active: 5.17 µM
COc1ccc(Cl)cc1NC(=O)Cn1nnc(C(=O)NCCc2ccc(OC)c(OC)c2)c1N | – | inconclusive: 18.3 µM [inhibitor, single point]

(list continues)

Compound | activity change, negative = inhibition | Potency
CCc1nnc(NC(=O)c2ccc3c(c2)C(=O)N(C(C)(C)C)C3=O)s1 | – | inconclusive: 4.61 µM [activator, partial curve]
CCCn1c(NCc2cccc(OC)c2OC)nc2ccccc21 | – | inconclusive: 16.4 µM [activator, single point]
O=C(Nc1ccccc1)Nc1nccs1 | – | inconclusive: 18.4 µM [activator, partial curve]
Cc1cccc(-n2cnc(C(=O)NNC(=S)Nc3ccccc3)c2)n1 | – | inconclusive: 29.1 µM [inhibitor, single point]
COc1ccccc1Nc1ncc(C(C)=O)c(C)n1 | – | inconclusive: 29.1 µM [activator, single point]
CCN(CC)C(=O)c1ccc(NS(=O)(=O)c2ccc3[nH]c(=O)[nH]c3c2)cc1 | – | active: 18.3 µM
O=C(Nc1ccc(S(=O)(=O)Nc2ncccn2)cc1)C1CC(=O)N(c2ccc(Cl)cc2)C1 (stereo not given) | inactive: 0% | –
O=C1c2cccc(OCC(=O)N3CCCc4ccccc43)c2CCN1Cc1cccnc1 | – | active: 7.3 µM
Cc1ccc(/C=N/NC(=O)c2cccnc2)o1 | inactive: -22.5% | –
c1ccc(-c2nc(NCCCn3ccnc3)c3oc4ccccc4c3n2)cc1 | – | inconclusive: 22.4 µM [inhibitor, single point]
CC(C)c1nnc(NC(=O)CCCCCN2C(=O)C3C4C=CC(C4)C3C2=O)s1 (stereo not given) | – | inconclusive: 29.1 µM [inhibitor, single point]
COc1ccc2c(c1)[C@@H]1[C@H](CO2)[C@H](c2ccccc2)[C@]2(C)C(=O)Nc3ccc(C)cc3C(=O)N12 | – | inconclusive: 14.1 µM [inhibitor, partial curve, poor fit]
Nc1ncnc(NCc2ccccc2)c1[N+](=O)[O-] | – | active: 10.3 µM
C=CCC(C#N)(c1ccc(OC)c(OC)c1)c1cnccn1 (stereo not given) | inactive: 9.13% | –
O=C(O)CCc1ccc(-c2cccs2)n1CCC(=O)O | inactive: 0% | –
Cn1c(C(=O)NCCN2CCN(c3ccccc3F)CC2)cc2c(=O)n(C)c3ccccc3c21 | – | inconclusive: 14.6 µM [inhibitor, partial curve]
Cc1ccc(C(=O)NC(=S)Nc2ccc(NC(=O)c3cccs3)cc2)cc1[N+](=O)[O-] | – | inconclusive: 4.61 µM [inhibitor, partial curve, poor fit]
COc1ccc(/C=N/NC(=O)CCN2CCN(c3ccccc3)CC2)c(OC)c1OC | – | inconclusive: 20.6 µM [inhibitor, partial curve]
Cc1cc(OCc2nc(-c3cccs3)no2)cc(C)c1Cl | – | inconclusive: 29.1 µM [activator, single point]
COc1cc(OC)c2c(-c3ccccc3)cc(=O)oc2c1C(CC(=O)N1CCN(c2ccccc2)CC1)c1ccc2c(c1)OCO2 (stereo not given) | inactive: 9.29% | –
O=C(Nc1ccccc1Cl)c1ccc([N+](=O)[O-])o1 | – | inconclusive: 14.6 µM [inhibitor, partial curve, poor fit]
CCCCn1c(N)c(N(CCC(C)C)C(=O)C2CC(=O)N(c3ccc(OC)cc3OC)C2)c(=O)[nH]c1=O (stereo not given) | inactive: -6.82% | –
O=c1c(-c2ccccc2)cnc2n1CCS2 | – | inconclusive: 16.4 µM [activator, partial curve, poor fit]
Cc1nn(-c2ccccc2)c2c1c(C)c(CCC(=O)NCC1CCCO1)c(=O)n2C (stereo not given) | inactive: -27.6% | –
COc1cccc(NC(=S)N2CCN(Cc3ccccc3)CC2)c1 | inactive: 0.0264% | –

Compound | activity change, negative = inhibition | Potency
COc1ccc(-c2cc(C(F)(F)F)c3c(n2)sc2c(O)cc(=O)[nH]c23)c(OC)c1 | inactive: -13.1% | –
O=C(/C=C/c1ccccc1)c1ccccc1O | inactive: 24.6% | –
CC(C)[C@H](NS(=O)(=O)c1ccccc1F)C(=O)NC1CCCCC1 | – | active: 5.17 µM
CCc1ccc(NC(=O)CSC2=C(C#N)C(c3ccco3)C3=C(CCCC3=O)N2)cc1 (stereo not given) | – | inconclusive: 20.6 µM [inhibitor, partial curve]
COc1cccc(Nc2ncnc3ccccc23)c1 | – | inconclusive: 3.66 µM [activator, full curve]
CN(C(=O)c1ccccc1Cl)C1CCCCC1 | inactive: 3.96% | –
CCCn1c(O)c(N=NC(=O)c2cccnc2)c2cc(Br)ccc21 | inactive: 0% | –
Nc1cc[n+](CC(=O)Nc2ccccc2)cc1 | inactive: 5.88% | –
CCCCCCNc1c(C(=O)OCC)c(=O)[nH]c2ccccc12 | inactive: -25.7% | –
C(=N\N1CCN(Cc2ccccc2)CC1)/c1ccc(-c2ccccc2)cc1 | inactive: -1.6% | –
FC(F)(F)c1ccc(/C=N/N2CCN(Cc3ccccc3)CC2)cc1 | inactive: -2.62% | –
CCCCOc1ncnc2c1[nH]c1ccc(C)cc12 | – | inconclusive: 0.73 µM [activator, partial curve, poor fit]
CN(C)c1ccc(NC(=O)CN2CCC(NC(=O)C3CCCCC3)CC2)cc1 | inactive: 4.36% | –
O=C(c1cccc(C(F)(F)F)c1)C1CCCN(C(=O)CN2CCOC2=O)C1 (stereo not given) | – | inconclusive: 25.9 µM [activator, single point]
CCc1cccc(C)c1NC(=O)CN1C(=O)NC(Cc2ccccc2)C1=O (stereo not given) | inactive: -24.5% | –
Cc1ccc(C)c(S(=O)(=O)N2CCN(C(=O)C3CCN(C(=O)c4ccc(F)cc4)CC3)CC2)c1 | – | inconclusive: 20.6 µM [inhibitor, single point]
COc1ccc(NC(=O)CSc2nc(N)c(C(=O)Nc3ccc(N(C)C)cc3)s2)cc1 | – | inconclusive: 5.8 µM [activator, partial curve]
Cc1nc(-c2cccc(NC(=O)c3cccs3)c2)cs1 | – | inconclusive: 29.1 µM [inhibitor, single point]
O=C(c1ccc(-c2ccccc2Cl)o1)N1CCC1 | – | inconclusive: 23.1 µM [activator, partial curve]
CCOc1ccc(C2=Cc3cc(OC)c(OC)cc3C(=C(Cl)Cl)O2)cc1 | – | inconclusive: 29.1 µM [inhibitor, single point]
Cc1ccc(NC(=S)NC(NC(=O)c2ccccc2C)C(Cl)(Cl)Cl)c(C)c1 (stereo not given) | – | inconclusive: 23.1 µM [inhibitor, single point]
O=C(OCc1ccc(Cl)c(Cl)c1)c1ccc[nH]1 | – | inconclusive: 20.6 µM [activator, partial curve]
O=C(Cn1cncn1)N/N=C/c1ccncc1 | inactive: 10.4% | –
N#CCC(=O)Nc1ccc(C(=O)NCCc2c[nH]c3ccccc23)cc1 | – | inconclusive: 20.6 µM [activator, single point]
O=C(CSc1ncnc2c1oc1ccccc12)N1CCCc2ccccc21 | – | inconclusive: 29.1 µM [inhibitor, single point]

Reference: PubChem BioAssay AID504467 (National Center for Advancing Translational Sciences (NCATS), 2011)
